Our source for the binding values is article PMC9161932.

Sequences of proteins named here, by UniProt entry; tags and fusion partners are left off.
UniProt Q12905: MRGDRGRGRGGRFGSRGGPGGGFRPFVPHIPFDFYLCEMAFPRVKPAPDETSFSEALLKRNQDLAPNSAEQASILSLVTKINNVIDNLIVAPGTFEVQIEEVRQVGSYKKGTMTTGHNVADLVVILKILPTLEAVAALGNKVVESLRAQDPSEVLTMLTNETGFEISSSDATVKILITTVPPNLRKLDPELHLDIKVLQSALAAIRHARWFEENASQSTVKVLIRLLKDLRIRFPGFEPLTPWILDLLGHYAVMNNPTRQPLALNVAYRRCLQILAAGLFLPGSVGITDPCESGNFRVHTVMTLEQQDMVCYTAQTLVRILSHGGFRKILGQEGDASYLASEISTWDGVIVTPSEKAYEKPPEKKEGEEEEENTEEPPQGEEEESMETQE

These are yes or no findings as the source states them, for the method shown. In cells and extracts the contact can be indirect. Some results given as binding are weak or reduced against the parent protein; the word gives no strength.

This assay deals with T1, Serine hydroxymethyltransferase 2 (SHMT2) (human (endogenous in CAL-27)) (UniProt P34897).
T1 sequence: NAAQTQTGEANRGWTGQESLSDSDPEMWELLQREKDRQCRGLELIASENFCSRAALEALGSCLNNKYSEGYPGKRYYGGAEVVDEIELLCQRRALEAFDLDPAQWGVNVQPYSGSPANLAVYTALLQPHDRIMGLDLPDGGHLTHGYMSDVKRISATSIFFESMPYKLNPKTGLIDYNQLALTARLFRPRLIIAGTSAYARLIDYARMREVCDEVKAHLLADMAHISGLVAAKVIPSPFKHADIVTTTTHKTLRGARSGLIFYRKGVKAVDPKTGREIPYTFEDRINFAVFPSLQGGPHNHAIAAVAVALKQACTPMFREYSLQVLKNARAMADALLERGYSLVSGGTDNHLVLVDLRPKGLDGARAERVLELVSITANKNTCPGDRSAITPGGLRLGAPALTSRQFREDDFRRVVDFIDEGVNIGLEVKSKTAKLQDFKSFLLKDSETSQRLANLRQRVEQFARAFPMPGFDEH
In words: co-IP; CAL-27 cells lysed on ice for 30 min in RIPA lysis buffer with protease inhibitors; lysate added to protein A agarose-coupled anti-IgG, anti-SHMT2 or anti-ILF2.

With “Interleukin enhancer-binding factor 2 (ILF2) (from UniProt Q12905 1-390)”, the binding result is reported as “binds”.
